Reference: patent publication US10017506B2, “ATX modulating agents” (BIOGEN MA INC., priority 2012, dated 2018)

Each compound was assayed against T1, Human ATX protein (Homo sapiens, UniProt Q13822) (assay: ATX biochemical FRET assay with FS-3 substrate). Settings: IC50, FRET substrate FS-3 2 μM, ATX 1.0 μg/mL, 30 minutes pre-incubation, 2 hours at room temperature.
T1 construct: made in house
Text: ATX (Autotaxin) is a 125 KDa glycoprotein with lysophospholipase D (LPLD) activity that generates the bioactive lipid lysophosphatidic acid (LPA) from lysophosphatidylcholine (LPC). The ATX biochemical assay utilizes a FRET (fluorescence resonance energy transfer) technology platform. The fluorescence signal of FRET substrate FS-3 is quenched due to intra-molecular FRET of a fluorophore to a non-fluorescing quencher (Ferguson, C. G., et al., Org Lett. 2006 May 11; 8(10): 2023-2026, which is incorporated by reference in its entirety). ATX catalyzes the hydrolysis of the substrate which separates the dabsyl quencher from the fluorescein reporter, which becomes fluorescent. The reaction is monitored by a SpectraMax M5 (Molecular Devices, Sunnyvale, Calif.) with at excitation wavelength 485 nm and emission wavelength […].
Fatty acid free-BSA (Sigma A8806): 10 mg/mL in H2O, stored at 4° C.
2×ATX assay buffer: 100 mM Tris, 280 mM NaCl, 10 mM KCl, 2 mM CaCl2, 2 mM MgCl2, pH 7.4.
Human ATX protein: expressed and purified in house. Stored at −80° C.
Substrate FS-3 (Echelon, L-2000): 100 μg in 77.74 μL H2O (1 mM stock), stored at −20° C.
384-well flat bottom plates—Corning #3575.
Compound dilution—All compounds were provided at 10 mM in 100% DMSO. In the first well, 2 μL of 10 mM compound was added to 78 μL of DMSO (1:40 dilution). In subsequent wells 3-fold dilution (total 10 dilutions) were performed.
1×ATX assay buffer was made up with a final concentration of 1 mg/mL fatty acid free-BSA using 2×ATX assay buffer, 10 mg/ml fatty acid free-BSA and ddH2O.
ATX protein was diluted with 1×ATX assay buffer to a concentration of 1.32 μg/mL (1.32×). 38 μL was added per well to the assay plate. The final concentration of ATX in the reaction as 1.0 μg/mL.
2 μL per well of compounds was transferred to provide the desired concentration. The plate was centrifuged, then incubated at room temperature for 30 minutes on the shaker. […]
Fluorescence was measured using SpectraMax M5 (excitation at 485 nm/emission at 538 nm, top read).

SMILES	IC50 [nM]
C[C@H](c1ccc2ccc(O[C@H]3CC[C@@H](C)CC3)c(C(F)(F)F)c2c1)N1C2CCC1CC(C(=O)O)C2 (single isomer, unassigned) [Example 6a]	≤ 100
C[C@@H](c1ccc2ccc(O[C@H]3CC[C@@H](C)CC3)c(C(F)(F)F)c2c1)N1C2CCC1CC(C(=O)O)C2 (single isomer, unassigned) [Example 6b]	≤ 250
CC(c1ccc2ccc(O[C@H]3CC[C@@H](C)CC3)c(C(F)(F)F)c2c1)N1C2CCC1CC(C(=O)O)C2 (stereo partly drawn) [Example 6, 8-{1-[7-(cis-4-methyl-cyclohexyloxy)-8-trifluoromethyl-naphthalen-2-yl]-ethyl}-8-aza-bicyclo[3.2.1]octane-3-carboxylic acid]	≤ 100
